Data from patent US20170189504A1, “NOVEL PEPTIDES AND COMBINATION OF PEPTIDES FOR USE IN IMMUNOTHERAPY AGAINST VARIOUS CANCERS” (immatics biotechnologies GmbH, priority 2015, published 2017).

Legend:
[1] = test system: tumor samples; test: Absolute quantitation of tumor associated peptides presented on the cell surface (copies per cell, nanoLC-MS/MS) (Table 22); set-up: species or system human; details: absolute peptide quantitation in tumor samples
[2] = test system: HLA-A*02; test: Identification and relative LC-MS quantitation of HLA-A*02-presented tumor-associated peptides on tissue samples (presentation profiles, Tables 13A, 13B, 15, FIG. 1); set-up: species or system human; key to Presentation score NHL / Presentation score CLL / Presentation score BRCA / Presentation score AML / Presentation score GB / Presentation score NSCLC / Presentation score GBC_CCC / Presentation score UEC / Presentation score MEL / Presentation score OSCAR / Presentation score GC / Presentation score UBC / Presentation score OC / Presentation score RCC / Presentation score CRC / Presentation score PCA / Presentation score HCC / Presentation score PC / Presentation score SCLC: specifically presented on tumors (++++); very highly over-presented on tumors compared to a panel of normal tissues (+++); highly over-presented on tumors compared to a panel of normal tissues (++); over-presented on tumors compared to a panel of normal tissues (+); details: for number of cancer tissues where the peptide was found to be presented: FIG. 1, A*02 positive samples, only samples with presentation shown; for Peptide Presentation on cancer entities: HLA-A*02-binding tumor-associated peptides
[3] = test system: source genes (mRNA); test: Gene and exon expression of source genes, TCGA tumor samples compared with normal tissue samples (Lonsdale, 2013) (Table 17); set-up: species or system human; details: tumor expression more than 2-fold above highest 75% percentile of high and medium risk normal tissues; for Target coverage: over-expression category of source gene, BLCA: Bladder urothelial carcinoma (N = 408); for Target coverage: over-expression category of source gene, BRCA: Breast cancer (N = 1104); for Target coverage: over-expression category of source gene, READ: Colon and rectal adenocarcinoma (N = 167); for Target coverage: over-expression category of source gene, COAD: Colon and rectal adenocarcinoma (N = 462); for Target coverage: over-expression category of source gene, ESCA: Esophageal cancer (N = 185); for Target coverage: over-expression category of source gene, LUAD: Lung adenocarcinoma (N = 517); for Target coverage: over-expression category of source gene, LUSC: Lung squamous cell carcinoma (N = 503); for Target coverage: over-expression category of source gene, DLBC: Lymphoid neoplasm diffuse large B-cell lymphoma (N = 48); for Target coverage: over-expression category of source gene, OV: Ovarian serous cystadenocarcinoma (N = 309); for Target coverage: over-expression category of source gene, SKCM: Skin cutaneous melanoma (N = 473); for Target coverage: over-expression category of source gene, STAD: Stomach adenocarcinoma (N = 415); for Target coverage: over-expression category of source gene, UCEC: Uterine corpus endometrial carcinoma (N = 546)
[4] = test system: HLA-A*24; test: Identification and relative LC-MS quantitation of HLA-A*24-presented tumor-associated peptides on tissue samples (presentation profiles, Tables 14A, 14B, 16, FIG. 1); set-up: species or system human; key to Presentation score GC / Presentation score NSCLC / Presentation score PCA / Presentation score GB / Presentation score HCC / Presentation score RCC: specifically presented on tumors (++++); very highly over-presented on tumors compared to a panel of normal tissues (+++); highly over-presented on tumors compared to a panel of normal tissues (++); over-presented on tumors compared to a panel of normal tissues (+); details: for Presentation score GC: gastric cancer (N = 44) vs panel of normal tissues (N = 70); for Presentation score NSCLC: non-small cell lung cancer (N = 91) vs panel of normal tissues (N = 70); for Peptide Presentation on cancer entities: Table 14A, HLA-A*24-binding tumor-associated peptides, cancer entities on which the peptide was found presented
[5] = test system: source genes (mRNA); test: Expression profiling of source genes by in-house RNASeq of tumor and normal tissues (Table 18, FIG. 2); set-up: species or system human; key: very highly over-expressed in tumors compared to a panel of normal tissues (+++); highly over-expressed in tumors compared to a panel of normal tissues (++); over-expressed in tumors compared to a panel of normal tissues (+); details: source gene of peptide; for Expression score OSCAR: esophageal cancer incl. gastric-esophageal junction (N = 11) vs panel of normal tissues; for Expression score NHL: non-Hodgkin lymphoma (N = 10) vs panel of normal tissues; for Expression score NSCLC: non-small cell lung cancer (N = 11) vs panel of normal tissues; for Expression score OC: ovarian cancer (N = 12) vs panel of normal tissues; for Expression score SCLC: small cell lung cancer (N = 10) vs panel of normal tissues
[6] = Table 13A, cancer entities on which the peptide was found presented
[7] = Table 13B, presentation on additional cancer entities
[8] = FIG. 1, A*24 positive samples, only samples with presentation shown

Row | Substance | Copies per cell (median) [1] | number of cancer tissues where the peptide was found to be presented [2] | Peptide Presentation on cancer entities [2, 6] | Peptide Presentation on cancer entities [2, 7] | Target coverage: over-expression category of source gene, BLCA [3] | Target coverage: over-expression category of source gene, BRCA [3] | Target coverage: over-expression category of source gene, READ [3] | Target coverage: over-expression category of source gene, COAD [3] | Target coverage: over-expression category of source gene, ESCA [3] | Target coverage: over-expression category of source gene, LUAD [3] | Target coverage: over-expression category of source gene, LUSC [3] | Target coverage: over-expression category of source gene, DLBC [3] | Target coverage: over-expression category of source gene, OV [3] | Target coverage: over-expression category of source gene, SKCM [3] | Target coverage: over-expression category of source gene, STAD [3] | Target coverage: over-expression category of source gene, UCEC [3] | Presentation score GC ([4]; HLA-A*24 peptides) | Presentation score NSCLC ([4]; HLA-A*24 peptides) | Peptide Presentation on cancer entities [4] | Expression score OSCAR [5] | also measured
1 | 24 (TLDEKVAEL; listed as Homo sapiens) [compound 24] | + (<100 = +) |  |  |  |  |  |  |  |  |  |  |  |  |  |  |  |  |  |  |  | Presentation score OSCAR ([2]; HLA-A*02 peptides, esophageal cancer, including cancer of the gastric-esophageal junction (N = 17) vs panel of normal tissues (N = 262)): ++++; Presentation score HCC ([2]; HLA-A*02 peptides, hepatocellular carcinoma (N = 16) vs panel of normal tissues (N = 262)): ++++; Presentation score MEL ([2]; HLA-A*02 peptides, melanoma (N = 7) vs panel of normal tissues (N = 262)): ++++; Presentation score NSCLC ([2]; HLA-A*02 peptides, non-small cell lung cancer (N = 90) vs panel of normal tissues (N = 262)): ++++
2 | 32 (VQLDSIEDLEV; listed as Homo sapiens) [compound 32] | ++ (>=100 = ++) | 10 | CLL, OC | NSCLC, OC, UEC, MEL |  |  |  |  |  |  |  |  |  |  |  |  |  |  |  |  | Presentation score CLL ([2]; HLA-A*02 peptides, chronic lymphocytic leukemia (N = 17) vs panel of normal tissues (N = 262)): ++++; Presentation score OC ([2]; HLA-A*02 peptides, ovarian cancer (N = 20) vs panel of normal tissues (N = 262)): ++++
3 | 39 (HLLEGSVGV; listed as Homo sapiens) [compound 39] | + (<100 = +) | 7 | BRCA | HCC, MEL |  |  |  |  |  |  |  |  |  |  |  |  |  |  |  |  | Presentation score BRCA ([2]; HLA-A*02 peptides, breast cancer (N = 17) vs panel of normal tissues (N = 262)): ++++
4 | 251 (ALSVLRLAL; listed as Homo sapiens) [compound 251] | ++ (>=100 = ++) |  | AML |  |  |  |  |  |  |  |  |  |  |  |  |  |  |  |  |  | Presentation score AML ([2]; HLA-A*02 peptides, acute myeloid leukemia (N = 18) vs panel of normal tissues (N = 262)): ++++
5 | 288: peptide found in NUP210 (gene looked up) (VYVSDIQEL; listed as Homo sapiens) [compound 288] |  |  |  |  | C (>=5% of tumors above the cutoff, but <20%) | C (>=5% of tumors above the cutoff, but <20%) | C (>=5% of tumors above the cutoff, but <20%) | C (>=5% of tumors above the cutoff, but <20%) | B (>= 20% of tumors above the cutoff, but <50%) | C (>=5% of tumors above the cutoff, but <20%) | C (>=5% of tumors above the cutoff, but <20%) | B (>= 20% of tumors above the cutoff, but <50%) | B (>= 20% of tumors above the cutoff, but <50%) | C (>=5% of tumors above the cutoff, but <20%) | C (>=5% of tumors above the cutoff, but <20%) | C (>=5% of tumors above the cutoff, but <20%) | + | + | GC, NSCLC, HCC, PCA | + | Target coverage: over-expression category of source gene, LAML ([3]; Acute Myeloid Leukemia (N = 173)): A (>=50% of tumors above the cutoff); number of cancer tissues where the peptide was found to be presented [4, 8]: 21; number of normal tissues where the peptide was found to be presented [4, 8]: 2; Presentation score HCC ([4]; HLA-A*24 peptides, hepatocellular carcinoma (N = 15) vs panel of normal tissues (N = 70)): +; Expression score AML ([5]; acute myeloid leukemia (N = 11) vs panel of normal tissues): ++; Expression score CLL ([5]; chronic lymphocytic leukemia (N = 10) vs panel of normal tissues): +; Expression score NHL [5]: ++; Expression score NSCLC [5]: +; Expression score OC [5]: +; Expression score SCLC [5]: +
6 | 302: peptide found in IDO1 (gene looked up) (RYMPPAHRNF; listed as Homo sapiens) [compound 302] |  |  |  |  | B (>= 20% of tumors above the cutoff, but <50%) | B (>= 20% of tumors above the cutoff, but <50%) | B (>= 20% of tumors above the cutoff, but <50%) | B (>= 20% of tumors above the cutoff, but <50%) | B (>= 20% of tumors above the cutoff, but <50%) | A (>=50% of tumors above the cutoff) | A (>=50% of tumors above the cutoff) | A (>=50% of tumors above the cutoff) | A (>=50% of tumors above the cutoff) | B (>= 20% of tumors above the cutoff, but <50%) | B (>= 20% of tumors above the cutoff, but <50%) | A (>=50% of tumors above the cutoff) | ++++ | ++++ | GC, NSCLC | ++ | Target coverage: over-expression category of source gene, CHOL ([3]; Cholangiocarcinoma (N = 36)): C (>=5% of tumors above the cutoff, but <20%); Target coverage: over-expression category of source gene, KIRC ([3]; Clear cell kidney carcinoma (N = 534)): A (>=50% of tumors above the cutoff); Target coverage: over-expression category of source gene, KICH ([3]; Kidney chromophobe (N = 66)): C (>=5% of tumors above the cutoff, but <20%); Target coverage: over-expression category of source gene, PAAD ([3]; Pancreatic ductal adenocarcinoma (N = 179)): C (>=5% of tumors above the cutoff, but <20%); Target coverage: over-expression category of source gene, PRAD ([3]; Prostate adenocarcinoma (N = 498)): C (>=5% of tumors above the cutoff, but <20%); Expression score BRCA ([5]; BRCA tumors vs panel of normal tissues): +; Expression score NHL [5]: +; Expression score NSCLC [5]: +++; Expression score OC [5]: +++; Expression score PC ([5]; pancreatic cancer (N = 26) vs panel of normal tissues): +; Expression score RCC ([5]; renal cell carcinoma (N = 10) vs panel of normal tissues): +; Expression score SCLC [5]: ++; Expression score UBC ([5]; urinary bladder cancer (N = 10) vs panel of normal tissues): +; Expression score UEC ([5]; uterine cancer (N = 10) vs panel of normal tissues): ++

For part of these data: For expression read-outs the peptide stands for its source gene, whose mRNA was measured; the gene is not named for every peptide.
